Test results: the supplement of paper PMC10849652
The other results are listed elsewhere or left out.

By UniProt entry, the sequences of proteins in these tests, tags left out. Where a name states a change or a piece, a line headed by the entry shows the natural chain unless it says otherwise.
UniProt P60896: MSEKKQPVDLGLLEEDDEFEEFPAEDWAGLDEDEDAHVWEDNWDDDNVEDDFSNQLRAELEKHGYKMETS
UniProt Q9NSC2: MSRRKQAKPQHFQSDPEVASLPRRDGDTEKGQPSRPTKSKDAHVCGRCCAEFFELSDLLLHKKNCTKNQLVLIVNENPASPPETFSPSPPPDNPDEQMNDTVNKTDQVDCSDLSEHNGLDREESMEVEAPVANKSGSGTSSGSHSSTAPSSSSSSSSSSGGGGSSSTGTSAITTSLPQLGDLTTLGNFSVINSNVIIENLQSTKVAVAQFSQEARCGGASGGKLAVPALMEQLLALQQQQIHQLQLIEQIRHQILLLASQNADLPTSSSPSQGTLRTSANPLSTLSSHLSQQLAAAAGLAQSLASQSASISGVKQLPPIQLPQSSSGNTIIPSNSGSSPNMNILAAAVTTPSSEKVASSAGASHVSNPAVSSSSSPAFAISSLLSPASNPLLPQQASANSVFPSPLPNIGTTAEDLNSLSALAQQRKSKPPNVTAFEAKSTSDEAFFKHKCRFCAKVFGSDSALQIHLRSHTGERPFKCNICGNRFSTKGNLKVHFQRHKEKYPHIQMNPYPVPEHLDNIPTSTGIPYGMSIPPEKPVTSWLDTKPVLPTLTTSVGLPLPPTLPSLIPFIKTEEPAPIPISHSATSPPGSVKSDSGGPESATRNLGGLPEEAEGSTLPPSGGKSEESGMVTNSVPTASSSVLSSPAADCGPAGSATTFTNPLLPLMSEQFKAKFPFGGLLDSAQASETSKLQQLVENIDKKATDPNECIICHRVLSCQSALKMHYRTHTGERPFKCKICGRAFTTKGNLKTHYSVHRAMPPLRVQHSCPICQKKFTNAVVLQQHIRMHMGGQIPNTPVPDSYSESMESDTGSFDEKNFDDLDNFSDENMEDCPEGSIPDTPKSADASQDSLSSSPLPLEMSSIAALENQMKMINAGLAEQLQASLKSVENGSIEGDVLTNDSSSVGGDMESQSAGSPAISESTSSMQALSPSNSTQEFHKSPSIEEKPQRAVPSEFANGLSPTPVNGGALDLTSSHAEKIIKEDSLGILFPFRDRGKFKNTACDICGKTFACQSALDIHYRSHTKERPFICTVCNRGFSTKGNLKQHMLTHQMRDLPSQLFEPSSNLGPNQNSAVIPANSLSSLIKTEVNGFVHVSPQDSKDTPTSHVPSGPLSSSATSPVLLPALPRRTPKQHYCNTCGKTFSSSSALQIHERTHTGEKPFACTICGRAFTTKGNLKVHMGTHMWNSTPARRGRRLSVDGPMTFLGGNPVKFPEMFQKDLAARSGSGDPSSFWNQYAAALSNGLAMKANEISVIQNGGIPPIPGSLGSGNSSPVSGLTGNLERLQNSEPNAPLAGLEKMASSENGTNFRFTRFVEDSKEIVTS
UniProt P63302, whole entry, looked up: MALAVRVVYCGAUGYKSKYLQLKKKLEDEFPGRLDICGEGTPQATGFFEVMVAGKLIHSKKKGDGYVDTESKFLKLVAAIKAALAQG
UniProt O75845: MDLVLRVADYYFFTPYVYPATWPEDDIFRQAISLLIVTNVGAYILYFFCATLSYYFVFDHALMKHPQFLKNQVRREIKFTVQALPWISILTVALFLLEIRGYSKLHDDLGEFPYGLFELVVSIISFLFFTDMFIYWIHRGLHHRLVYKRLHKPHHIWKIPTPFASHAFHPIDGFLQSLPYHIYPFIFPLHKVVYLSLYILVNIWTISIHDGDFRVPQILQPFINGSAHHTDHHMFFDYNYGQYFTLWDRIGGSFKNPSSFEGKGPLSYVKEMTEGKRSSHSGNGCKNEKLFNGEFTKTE
UniProt O75446: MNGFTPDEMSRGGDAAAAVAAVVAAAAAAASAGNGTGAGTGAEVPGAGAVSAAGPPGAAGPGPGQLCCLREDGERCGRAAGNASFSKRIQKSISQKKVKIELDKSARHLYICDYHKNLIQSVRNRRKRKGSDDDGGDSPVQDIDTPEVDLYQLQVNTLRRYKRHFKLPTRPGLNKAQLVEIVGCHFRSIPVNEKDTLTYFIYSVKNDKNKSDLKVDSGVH
UniProt O95968: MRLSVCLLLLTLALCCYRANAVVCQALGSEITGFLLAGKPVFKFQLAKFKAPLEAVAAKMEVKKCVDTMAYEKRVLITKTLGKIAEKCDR
UniProt Q96IW7: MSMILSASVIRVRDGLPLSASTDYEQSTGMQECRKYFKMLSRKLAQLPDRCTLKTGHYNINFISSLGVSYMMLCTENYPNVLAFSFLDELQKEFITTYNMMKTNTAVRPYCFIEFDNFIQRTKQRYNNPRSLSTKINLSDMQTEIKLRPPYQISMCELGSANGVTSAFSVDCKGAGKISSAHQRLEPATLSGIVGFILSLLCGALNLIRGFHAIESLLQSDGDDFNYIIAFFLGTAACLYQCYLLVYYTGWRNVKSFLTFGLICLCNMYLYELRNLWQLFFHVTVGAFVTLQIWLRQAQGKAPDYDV
UniProt Q9HC62: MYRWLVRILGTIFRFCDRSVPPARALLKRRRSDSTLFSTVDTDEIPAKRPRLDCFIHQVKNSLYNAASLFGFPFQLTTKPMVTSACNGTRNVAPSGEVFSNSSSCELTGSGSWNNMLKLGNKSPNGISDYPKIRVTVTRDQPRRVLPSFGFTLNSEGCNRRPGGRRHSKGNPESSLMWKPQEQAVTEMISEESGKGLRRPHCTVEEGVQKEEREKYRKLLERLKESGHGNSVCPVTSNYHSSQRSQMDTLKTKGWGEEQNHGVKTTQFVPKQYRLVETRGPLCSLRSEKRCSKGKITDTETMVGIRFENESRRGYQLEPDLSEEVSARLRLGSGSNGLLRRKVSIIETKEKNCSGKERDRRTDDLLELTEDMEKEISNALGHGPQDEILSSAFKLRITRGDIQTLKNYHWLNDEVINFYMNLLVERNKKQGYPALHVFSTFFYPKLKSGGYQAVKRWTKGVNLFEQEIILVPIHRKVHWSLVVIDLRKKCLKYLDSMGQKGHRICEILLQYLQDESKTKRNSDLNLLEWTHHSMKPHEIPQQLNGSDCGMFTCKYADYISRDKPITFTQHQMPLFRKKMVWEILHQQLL
UniProt Q92503: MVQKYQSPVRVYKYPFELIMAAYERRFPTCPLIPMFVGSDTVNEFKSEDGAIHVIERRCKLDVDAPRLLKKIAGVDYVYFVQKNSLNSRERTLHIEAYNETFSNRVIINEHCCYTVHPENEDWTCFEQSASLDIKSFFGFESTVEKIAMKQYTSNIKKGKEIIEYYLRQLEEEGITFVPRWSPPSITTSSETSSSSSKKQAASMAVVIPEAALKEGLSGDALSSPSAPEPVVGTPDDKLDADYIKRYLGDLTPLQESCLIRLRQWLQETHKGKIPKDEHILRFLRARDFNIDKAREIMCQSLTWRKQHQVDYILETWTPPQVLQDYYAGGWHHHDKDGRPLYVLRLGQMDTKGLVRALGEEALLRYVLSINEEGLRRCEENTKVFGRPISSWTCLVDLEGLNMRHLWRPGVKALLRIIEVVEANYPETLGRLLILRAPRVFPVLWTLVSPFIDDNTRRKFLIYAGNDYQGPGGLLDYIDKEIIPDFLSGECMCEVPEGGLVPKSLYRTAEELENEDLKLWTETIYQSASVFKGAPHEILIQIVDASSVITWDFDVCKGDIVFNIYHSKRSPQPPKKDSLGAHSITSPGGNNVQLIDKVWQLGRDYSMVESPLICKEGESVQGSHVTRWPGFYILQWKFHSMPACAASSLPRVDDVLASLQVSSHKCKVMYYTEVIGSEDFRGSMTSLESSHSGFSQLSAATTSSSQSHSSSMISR
UniProt Q5K651: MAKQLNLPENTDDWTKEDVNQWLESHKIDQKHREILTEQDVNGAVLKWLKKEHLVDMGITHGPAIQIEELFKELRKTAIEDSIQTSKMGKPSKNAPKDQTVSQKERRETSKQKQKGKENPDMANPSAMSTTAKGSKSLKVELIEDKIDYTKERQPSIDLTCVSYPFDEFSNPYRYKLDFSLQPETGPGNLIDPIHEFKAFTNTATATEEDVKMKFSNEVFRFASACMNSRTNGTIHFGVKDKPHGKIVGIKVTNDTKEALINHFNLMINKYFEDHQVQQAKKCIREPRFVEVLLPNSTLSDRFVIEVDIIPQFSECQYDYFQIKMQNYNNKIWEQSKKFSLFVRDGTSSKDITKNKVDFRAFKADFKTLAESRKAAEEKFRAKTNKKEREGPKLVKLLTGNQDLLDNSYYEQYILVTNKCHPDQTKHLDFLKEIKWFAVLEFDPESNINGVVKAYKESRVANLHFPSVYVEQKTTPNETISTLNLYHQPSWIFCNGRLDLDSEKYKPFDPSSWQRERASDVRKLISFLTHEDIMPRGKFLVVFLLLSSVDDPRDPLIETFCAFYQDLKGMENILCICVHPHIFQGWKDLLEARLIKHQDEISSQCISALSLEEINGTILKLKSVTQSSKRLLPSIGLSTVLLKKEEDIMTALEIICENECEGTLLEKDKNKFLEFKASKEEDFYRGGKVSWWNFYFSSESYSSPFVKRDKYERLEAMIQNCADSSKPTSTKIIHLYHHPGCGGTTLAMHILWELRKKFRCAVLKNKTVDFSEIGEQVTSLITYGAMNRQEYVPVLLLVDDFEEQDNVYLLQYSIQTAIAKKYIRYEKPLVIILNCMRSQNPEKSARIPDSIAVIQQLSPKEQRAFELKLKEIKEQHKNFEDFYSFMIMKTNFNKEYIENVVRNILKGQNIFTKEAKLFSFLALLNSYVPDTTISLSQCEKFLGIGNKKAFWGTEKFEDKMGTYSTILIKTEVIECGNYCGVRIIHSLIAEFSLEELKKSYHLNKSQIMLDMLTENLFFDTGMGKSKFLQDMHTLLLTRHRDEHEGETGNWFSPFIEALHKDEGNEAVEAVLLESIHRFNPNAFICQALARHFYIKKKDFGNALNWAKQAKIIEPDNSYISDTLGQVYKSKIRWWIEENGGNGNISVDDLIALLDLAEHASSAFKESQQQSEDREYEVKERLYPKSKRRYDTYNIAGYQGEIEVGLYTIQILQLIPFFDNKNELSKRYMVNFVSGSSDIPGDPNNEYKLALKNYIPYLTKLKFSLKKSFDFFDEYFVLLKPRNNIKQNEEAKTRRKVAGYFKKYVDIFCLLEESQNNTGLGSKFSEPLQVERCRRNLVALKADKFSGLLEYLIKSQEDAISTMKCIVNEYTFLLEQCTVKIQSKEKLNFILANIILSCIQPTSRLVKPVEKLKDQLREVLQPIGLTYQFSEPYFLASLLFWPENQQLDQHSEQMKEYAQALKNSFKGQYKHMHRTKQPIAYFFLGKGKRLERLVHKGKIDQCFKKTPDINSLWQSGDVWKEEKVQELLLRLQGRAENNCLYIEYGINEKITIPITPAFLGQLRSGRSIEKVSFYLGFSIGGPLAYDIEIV
UniProt Q9Y6D0, whole entry, looked up: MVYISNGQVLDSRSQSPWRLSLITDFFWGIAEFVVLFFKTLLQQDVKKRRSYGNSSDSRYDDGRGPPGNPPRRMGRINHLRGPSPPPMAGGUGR
UniProt O75556: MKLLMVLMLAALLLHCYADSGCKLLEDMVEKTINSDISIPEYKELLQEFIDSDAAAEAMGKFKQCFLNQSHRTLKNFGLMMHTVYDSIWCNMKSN
UniProt Q96LT4: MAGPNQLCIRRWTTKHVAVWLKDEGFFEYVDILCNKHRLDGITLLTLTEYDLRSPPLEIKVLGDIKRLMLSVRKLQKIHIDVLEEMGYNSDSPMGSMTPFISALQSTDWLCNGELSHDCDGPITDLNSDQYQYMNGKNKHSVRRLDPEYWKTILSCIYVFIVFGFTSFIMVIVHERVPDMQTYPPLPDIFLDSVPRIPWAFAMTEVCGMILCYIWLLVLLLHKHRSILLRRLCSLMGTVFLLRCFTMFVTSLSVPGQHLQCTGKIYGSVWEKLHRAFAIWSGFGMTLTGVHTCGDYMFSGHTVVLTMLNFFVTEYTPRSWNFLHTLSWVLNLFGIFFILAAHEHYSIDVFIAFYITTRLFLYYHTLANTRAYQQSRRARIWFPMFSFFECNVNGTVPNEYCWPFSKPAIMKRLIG
UniProt Q6SPF0: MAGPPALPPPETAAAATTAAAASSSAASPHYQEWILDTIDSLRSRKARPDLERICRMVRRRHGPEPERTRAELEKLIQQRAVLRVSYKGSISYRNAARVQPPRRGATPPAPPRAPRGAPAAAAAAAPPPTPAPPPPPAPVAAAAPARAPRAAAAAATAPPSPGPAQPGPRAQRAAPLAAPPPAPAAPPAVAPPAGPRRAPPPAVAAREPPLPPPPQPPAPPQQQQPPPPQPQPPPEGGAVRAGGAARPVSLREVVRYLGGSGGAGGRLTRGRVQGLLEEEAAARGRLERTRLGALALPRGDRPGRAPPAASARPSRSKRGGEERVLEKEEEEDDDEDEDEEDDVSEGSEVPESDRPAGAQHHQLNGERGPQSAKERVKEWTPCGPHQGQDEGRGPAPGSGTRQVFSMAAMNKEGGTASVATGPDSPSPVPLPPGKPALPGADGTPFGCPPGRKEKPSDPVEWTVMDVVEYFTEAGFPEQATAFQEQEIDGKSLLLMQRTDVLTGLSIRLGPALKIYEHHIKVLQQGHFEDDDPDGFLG
UniProt Q8WWX9, whole entry, looked up: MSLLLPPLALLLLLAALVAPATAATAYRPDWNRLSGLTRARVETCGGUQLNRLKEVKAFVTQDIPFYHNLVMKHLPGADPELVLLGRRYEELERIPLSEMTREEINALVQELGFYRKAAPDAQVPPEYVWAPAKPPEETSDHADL

Tests used:
Test in all cases: log2 fold change, soluble protein after heating vs DMSO (PISA); higher = thermal stabilisation; K562 lysate, 10 uM; active = over 0.2 and 3.5 SD of the protein, either way, in both replicates (recomputed)
[1] = compound: C1=CC2=NC=CN=C2C=C1/C=C/3\C(=O)NC(=O)S3
Outline: (§1)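 Pellets of K562 cells were dounce-homogenised in PBS pH 7.4 with 1 mM MgCl2, and the crude extract was held at 1 mg/mL protein for a 30 min treatment with 10 μM compound. Aliquots were heated for 3 min over 48°C-58°C and pooled before NP-40 was added to 0.5% at 4°C. The supernatant from 21,000xg for 90 min was quantified by TMTpro 16plex LC-MS/MS with channel sums equalised. Values are reported from duplicates as log-two fold change in thermal stability relative to solvent controls.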

[2] = compound: C=CC(=O)N1CCC[C@@H](n2nc(-c3ccc(Oc4ccccc4)cc3)c3c(N)ncnc32)C1 [ibrutinib]
Outline: as §1

[3] = compound: CC(=O)c1cnc2ccc(-c3cc(Cl)c(O)c(Cl)c3)nc2c1N[C@H]1CC[C@H](CN(C)C)CC1
Outline: as §1

[4] = compound: CC1=C(C(CC(=O)N1)C2=CC=C(C=C2)C(F)(F)F)C(=O)NC3=C(C=C4C(=C3)C=NN4)F
Outline: as §1

[5] = compound: CC1=C(C2=C(C=C1)C(=O)C3=CC=CC=C3N2CCCN)C
Outline: as §1

[6] = compound: CC1=CC=C(C=C1)SC2=C3C=C(SC3=CN=C2)C(=O)N
Outline: as §1

[7] = compound: C#Cc1cccc(Nc2ncnc3cc(OCCOC)c(OCCOC)cc23)c1 [erlotinib]
Outline: as §1

[8] = compound: C1=CC(=CC=C1C2=NC3=C(N2)C=C(C=C3)C(=O)N)OC4=CC=C(C=C4)Cl
Outline: as §1

[9] = compound: CC(C)C1=C2N=C(C=C(N2N=C1)NCC3=CC=CC=C3)NCCCCCCN
Outline: as §1

[10] = compound: C1=CC=C(C=C1)C2=NC(=C(N2)C3=CC=NC=C3)C4=CC(=C(C=C4)Cl)O
Outline: as §1

[11] = compound: C1COCCN1CCN2C3=CC=CC=C3N=C2NC(=O)C4=CC(=CC=C4)[N+](=O)[O-] [IRAK-1-4 Inhibitor I]
Outline: as §1

[12] = compound: CC(C)(C)Cn1c(N)nc2ccc(-c3[nH]c(C(C)(C)C)nc3-c3ccc(F)cc3)nc21 [ralimetinib]
Outline: as §1

[13] = compound: CC(C)(O)CC(=O)NCCn1ccc2ncnc(Nc3ccc(Oc4cccc(C(F)(F)F)c4)c(Cl)c3)c21
Outline: as §1

[14] = compound: CC1=C(C=C(C=C1)NC(=O)C2=CC(=CC=C2)N(C)C)NC(=O)C3=CC=C(C=C3)O
Outline: as §1

[15] = compound: CC1=C(C=C(C=C1)NC(=O)C2=CC(=CC=C2)C(C)(C)C#N)NC3=CC4=C(C=C3)N=CN(C4=O)C
Outline: as §1

[16] = compound: C1CCN(C1)C(=O)NC2=CC=CC(=C2)NC3=NC=C(C(=N3)NCCC4=CN=CN4)Br
Outline: as §1

[17] = compound: C1CN(CCC1(CC2=CC=C(C=C2)Cl)N)C3=NC=NC4=C3C=CN4
Outline: as §1

[18] = compound: C/C(=N\NC(=O)C1=CC(=CC=C1)S(=O)(=O)N2CCOCC2)/C3=C(C=CC(=C3)Cl)O
Outline: as §1

[19] = compound: C1=CC2=C(C=CC(=C2)/C=C\3/C(=O)NC(=NCC4=CC=CS4)S3)N=C1
Outline: as §1

[20] = compound: C1=CC=C2C(=C1)C3=NNC4=CC=CC(=C43)C2=O
Outline: as §1

Measured: log2 fold change

SCARB2 isoform 2 (UniProt Q14108)
inactive: [1] 0.03 | [2] 0.007 | [3] 0.084 | [4] -0.042 | [5] -0.523 | [6] -0.042

SEM1 (UniProt P60896)
inactive: [7] -0.196 | [8] -0.103 | [9] -0.032

SEC16A isoform 2 (UniProt O15027)
inactive: [10] -0.07 | [11] -0.053 | [12] -0.103 | [13] -0.062 | [14] 0.167

SACS (UniProt Q9NZJ4)
inactive: [4] 0.02

SCAND1 (UniProt P57086)
inactive: [10] 0.108 | [11] 0.008 | [12] -0.192 | [13] 0.204 | [15] -0.03 | [14] 0.037

SELPLG isoform 2 (UniProt Q14242)
inactive: [3] -0.033 | [6] -0.175

SALL1 (UniProt Q9NSC2)
inactive: [16] -0.011 | [17] 0.033 | [4] -0.17

SECISBP2 (UniProt Q96T21)
inactive: [18] -0.323 | [19] -0.012 | [1] 0.005 | [10] 0.007 | [20] 0.05 | [16] -0.085 | [17] 0.065 | [11] 0.16 | [2] 0.036 | [3] -0.097 | [12] -0.138 | [13] 0.015 | [4] 0.116 | [5] -0.051 | [15] 0.023 | [14] 0.05 | [6] -0.214

SELENOW (UniProt P63302)
inactive: [10] 0.056 | [11] -0.121 | [3] -0.01 | [12] -0.087 | [13] -0.065 | [15] 0.048 | [14] 0.036 | [6] -0.044

SC5D (UniProt O75845)
inactive: [16] -0.028 | [17] 0.087 | [3] 0.044 | [15] 0.006 | [6] 0.021

SELENOO (UniProt Q9BVL4)
inactive: [10] 0.147 | [11] 0.138 | [3] -0.085 | [12] -0.176 | [13] -0.048 | [4] -0.03 | [5] 0.015 | [14] -0.175 | [6] 0.041

SELENON (UniProt Q9NZV5)
inactive: [7] 0.117 | [8] -0.111 | [9] 0.066 | [5] -0.054

SAP30 (UniProt O75446)
inactive: [18] 0.06 | [19] 0.025 | [1] -0.037 | [20] 0.013 | [16] 0.011 | [17] 0.067 | [2] 0.058 | [3] 0.033 | [4] 0.101 | [5] -0.007 | [15] 0.016 | [6] 0.006

Retrieved one by one from the entries so far, three records:
SCAND1 (UniProt P57086)
inactive: [10] 0.108 | [11] 0.008 | [12] -0.192 | [13] 0.204 | [15] -0.03 | [14] 0.037

SC5D (UniProt O75845)
inactive: [16] -0.028 | [17] 0.087 | [3] 0.044 | [15] 0.006 | [6] 0.021

SELPLG isoform 2 (UniProt Q14242)
inactive: [3] -0.033 | [6] -0.175

Further entries.

SCGB1D1 (UniProt O95968)
inactive: [7] -0.084 | [8] -0.171 | [9] 2.32

SDHB, A0A087WXX8
inactive: [18] -0.065 | [19] -0.073 | [20] 0.136 | [4] -0.069

SBNO2 (UniProt Q9Y2G9)
inactive: [18] 0.011 | [19] -0.068 | [20] -0.023

SEC22A (UniProt Q96IW7)
inactive: [1] -0.03 | [10] -0.032 | [11] -0.166 | [2] -0.017 | [3] -0.065 | [12] -0.012 | [13] -0.041 | [4] -0.185 | [15] 0.02 | [14] 0.19 | [6] 0.121

SENP7 (UniProt Q9BQF6)
inactive: [10] 0.09 | [16] 0.018 | [17] -0.093 | [11] 0.014 | [12] 0.067 | [13] -0.004 | [4] -0.097 | [5] -0.026 | [15] 0.046 | [14] -0.075

SENP2 (UniProt Q9HC62)
inactive: [4] 0.043

SDF2 (UniProt Q99470)
inactive: [1] 0.039 | [2] 0.221 | [3] 0.064 | [4] -0.333 | [15] 0.078 | [6] 0.18

SEC14L1 isoform 2 (UniProt Q92503)
inactive: [18] -0.087 | [19] 0.04 | [20] -0.13 | [3] -0.251 | [6] -0.154

SARM1 (UniProt Q6SZW1)
inactive: [7] -0.102 | [8] 0.081 | [3] -0.014 | [9] 0.079 | [4] -0.102 | [6] 0.007

SAMD9 (UniProt Q5K651)
inactive: [10] -0.066 | [16] -0.106 | [17] 0.062 | [11] 0.071 | [3] -0.171 | [12] 0.006 | [13] 0.024 | [4] 0.033 | [15] 0.019 | [14] 0.079 | [6] 0.023

SEC16A isoform 3 (UniProt O15027)
inactive: [10] 0.41 | [11] 0.123 | [12] -0.283 | [13] -0.122 | [5] -0.006 | [14] -0.023

SELENOK (UniProt Q9Y6D0)
inactive: [18] -0.075 | [19] 0.02 | [1] 0.089 | [20] 0.044 | [2] 0.05 | [3] -0.134 | [4] 0.092 | [5] -0.164 | [6] 0.022

SCGB2A1 (UniProt O75556)
inactive: [3] 0.046 | [6] -0.229

SCAI isoform 2 (UniProt Q8N9R8)
inactive: [18] 0.2 | [19] -0.087 | [1] 0.012 | [10] 0.284 | [20] -0.028 | [16] 0.08 | [17] -0.169 | [11] -0.048 | [2] 0.435 | [12] -0.093 | [13] 0.215 | [4] 0.072 | [14] 0.156

SAMD8 (UniProt Q96LT4)
inactive: [7] 0.306 | [8] 0.038 | [10] -0.03 | [11] 0.043 | [12] 0.025 | [13] -0.014 | [9] 0.005 | [14] -0.181

SAMD1 (UniProt Q6SPF0)
inactive: [10] 0.166 | [16] -0.039 | [17] 0.026 | [11] 0.095 | [3] -0.043 | [12] 0.034 | [13] -0.131 | [4] 0.008 | [5] -0.015 | [15] -0.005 | [14] 0.131 | [6] 0

SBSN (UniProt Q6UWP8)
inactive: [7] 0.458 | [8] -0.038 | [9] -0.085

SELENOM (UniProt Q8WWX9)
inactive: [10] -0.043 | [11] 0.072 | [3] 0.209 | [12] -0.123 | [13] -0.016 | [15] 0.1 | [14] 0.077 | [6] 0.038
